Assays:
Type in all cases: cell-based
[1] = tested on: hormone-independent prostate cancer cell line DU145; experiment: In vitro cytotoxicity, MTS (CellTiter 96 Aqueous Proliferation Assay), prostate cancer cells; conditions: Homo sapiens, DU-145, 168 h, 7 days exposure, dose causing death to 50% of cells, read-out: Cell Survival ED 50 Prostate
Description: FIG. 1 is a graph which compares the effects of the compound of Example 8 on normal human endothelial cells (AH-9) and human prostate cancer cells (DU145). Cells were exposed to the compound for seven days at the concentrations indicated. Cytotoxicity was assessed using the MTS assay.
(§1) To date, 31 different analogues in the series have been tested for their cytotoxicity against human prostate, pancreas and breast cancer cells grown in culture. In these experiments, cells were seeded at 400 cells per well 24 hours prior to addition of the test compound. Cells were grown at 37° C. in a humidified atmosphere of 95% air, 5% CO2 for 7 days with daily media changes. Cytotoxicity was assessed using the CellTiter 96 Aqueous Proliferation Assay (Promega, Madison, Wis.). In this assay the conversion of MTS-tetrazolium by metabolically active cells creates a stable colored compound, that can be measured spectrophotometrically at 490 nm.
In a separate experiment (FIG. 1), normal human endothelial cells (AH-9) and human prostate cancer cells (DU145) were exposed to increasing concentrations of the compound of Example 8 for seven days.

[2] = tested on: pancreas cancer cell line HS766T; experiment: In vitro cytotoxicity, MTS assay, pancreas cancer cells; conditions: Homo sapiens, 168 h, 7 days exposure, dose causing death to 50% of cells, read-out: Cell Survival ED 50 Pancreas
Description: as §1

[3] = tested on: breast cancer cell line HS578T; experiment: In vitro cytotoxicity, MTS assay, breast cancer cells; conditions: Homo sapiens, Hs-578T, 168 h, 7 days exposure, dose causing death to 50% of cells, read-out: Cell Survival ED 50 Breast
Description: as §1

How did the EC50 [1] turn out when `C(=C\c1ccccc1)/CN1CCN(C(c2ccccc2)c2ccccc2)CC1` [Cinnezarine, cinnarizine, reference compound] was run?
The EC50 was 8.5 µM.

And the EC50 [2]?
The EC50 was 2200 nM.

And the EC50 [3]?
The EC50 was 2800 nM.

— patent US6875759B1, “Substituted guanidines and the use thereof” (Kadmus Pharmaceuticals, priority 1999, dated 2005)
